## Percent effect of library compounds

From ChEMBL document CHEMBL3988442, “University of Dundee, Small-Polar-MMV Screening Library” (2021).

Mtb glucose medium: 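Growth of Mycobacterium tuberculosis over 3 days (7H9 medium with glucose and tyloxapol); the read-out is not stated. Compounds at 50 µM. Direction is inferred from retests: higher values go with more growth inhibition. About 69,000 compounds were tested under these conditions; 1.1% (about 760) showed 50% or more at least once.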
Mtb cholesterol medium: 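Whole-cell growth test on Mycobacterium tuberculosis, read after 4 days in a medium based on cholesterol and the lipid DPPC; the read-out is not stated. Compounds at 50 µM. Higher reads as more growth inhibition (inferred: compounds with an IC50 in retests scored well above the rest). Size under these conditions: about 69,000 compounds, about 370 of them at 50% or above in at least one test.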

The filed quantity is “Percent Effect” (%).
How 0% and 100% were set is not recorded. Most values in the screen are low, and negative values occur.
The compounds are a random part of those screened.
Two or more numbers in one place are separate tests of the same structure; such repeats can differ widely.

COc1ccccc1CC(=O)NC(C)c1nc2cccnc2n1C(C)C (stereo not drawn) gave Mtb glucose medium: -16.15%; Mtb cholesterol medium: 1.303%.
O=C(O)C(F)(F)F.O=C(O)C(F)(F)F.[H][C@@]12COC[C@@H](CC(=O)NCc3cccnc3)[C@]1([H])CN(C1CCC1)C2 gave Mtb glucose medium: 40.01%; Mtb cholesterol medium: 8.194%.
O=C(Nc1ccccc1-c1ccccc1)NC1CCC2(C1)OCCO2 (stereo not drawn) gave Mtb glucose medium: -35.14% & 10.03%; Mtb cholesterol medium: -27.91%.
CC(=O)Nc1ccc(S(=O)(=O)N2CCOC(Cn3ccnc3)C2)cc1 (stereo not drawn) gave Mtb glucose medium: 2.623%; Mtb cholesterol medium: -2.426%.
CN(Cc1cccc(-n2cccn2)c1)C(=O)c1ccnc(N)c1 gave Mtb glucose medium: -12.85%; Mtb cholesterol medium: -5.286%.
CN(C)Cc1nc2c(o1)CN(C(=O)c1ccncc1F)C2 gave Mtb glucose medium: -12.07%; Mtb cholesterol medium: -32.33%.
CN(Cc1ccncc1)Cc1cnn(-c2ccc(F)cc2)c1 gave Mtb glucose medium: 13.07%; Mtb cholesterol medium: 0.07137%.
CC(c1cccc(-c2cn(Cc3ccoc3)nn2)c1)N(C)C (stereo not drawn) gave Mtb glucose medium: -52.53%; Mtb cholesterol medium: -2.643% & 0.5126%.
Cc1cc(C)n(CC(=O)N(C)Cc2csc(-c3cccs3)n2)c(=O)n1 gave Mtb glucose medium: -38.48%; Mtb cholesterol medium: -15.15%.
CC(C)NC(=O)[C@@H]1CN(C)C[C@]12COc1ccc(F)cc1C2=O gave Mtb glucose medium: -16.23%; Mtb cholesterol medium: 0.4185% & -2.404%.
Cn1cc(CN2CCCC3(CCN(c4nncs4)C3)C2)cn1.O=C(O)C(F)(F)F (stereo not drawn) gave Mtb glucose medium: -14.07%; Mtb cholesterol medium: -4.168%.
COCC(NC(=O)c1cc(NC(C)=O)ccc1Cl)c1ccnn1C (stereo not drawn) gave Mtb glucose medium: 8.57% & -1.949%; Mtb cholesterol medium: -18.22%.
CC1=C(C(N)=O)C(c2cn(C)nc2C)N2C(=O)CSC2=N1 (stereo not drawn) gave Mtb glucose medium: 9.294%; Mtb cholesterol medium: 1.082%.
CN1CCN(Cc2ccsc2)Cc2cccnc21 gave Mtb glucose medium: -3.403%; Mtb cholesterol medium: -14.94%.
O=C(c1ccc(OCC2CC2)nc1)N1CCCC(n2cncn2)C1 (stereo not drawn) gave Mtb glucose medium: -25.67%; Mtb cholesterol medium: -9.587%.
CCn1c(NCc2ccc(OC)cc2)nc2c(C)nn(C)c2c1=O gave Mtb glucose medium: 7.052%; Mtb cholesterol medium: -4.161%.
Cc1cn2c(n1)CCC(NC(=O)CCC1CC1)C2 (stereo not drawn) gave Mtb glucose medium: -0.1503%; Mtb cholesterol medium: -5.151% & -15.36%.
CCNC(=O)[C@@H]1C[C@@H](NC(=O)Cc2ccccn2)CN1CCCSC gave Mtb glucose medium: -47.82%; Mtb cholesterol medium: -12.92%.
CC1(c2ncc(CN3CCN(c4ccccn4)CC3)cn2)CCCCO1 (stereo not drawn) gave Mtb glucose medium: -19.31%; Mtb cholesterol medium: -12.61% & -3.115%.
CCC(O)CN1CCN(C(=O)c2cnn(-c3ccccc3F)c2)CC1 (stereo not drawn) gave Mtb glucose medium: -20.66%; Mtb cholesterol medium: -1.429% & -6.225%.
COC1CCN(C(=O)c2cc(-c3ccc(Cl)cc3)on2)CC1 gave Mtb glucose medium: 20.38%; Mtb cholesterol medium: 14.12%.
COc1cc(NC(=O)c2ccc(Cl)cc2F)c(C(=O)N(C)C)cc1OC gave Mtb glucose medium: 15.72%; Mtb cholesterol medium: -1.537% & -14.35%.
CC(NC(=O)NCCCO)c1ccc2c(c1)NC(=O)CO2 (stereo not drawn) gave Mtb glucose medium: -28.86%; Mtb cholesterol medium: -25.45%.
O=C(NCCN1CCCCCC1=O)c1ccc(=O)[nH]n1 gave Mtb glucose medium: 3.709%; Mtb cholesterol medium: -11.4%.
O=C(CCC1CCCCC1)NS(=O)(=O)CC1CC1 gave Mtb glucose medium: -11.71%; Mtb cholesterol medium: -14.73%.
Cc1cccc(-c2noc(CN3CCCCC3Cn3cncn3)n2)c1 (stereo not drawn) gave Mtb glucose medium: -1.768%; Mtb cholesterol medium: 12%.
CCc1nc(NC(=O)Cc2csc(-c3nnc[nH]3)n2)sc1C gave Mtb glucose medium: 8.194% & 1.768%; Mtb cholesterol medium: -3.076%.
[H][C@@]12CC(C)=CC[C@]1([H])CN(C(=O)c1ccc(-c3nnn(C)n3)cc1)C2 gave Mtb glucose medium: 17.2%; Mtb cholesterol medium: 13.64%.
CN(C)CCN1CC(C(=O)NCc2cccc(-n3cccn3)c2)CC1=O (stereo not drawn) gave Mtb glucose medium: -20.19%; Mtb cholesterol medium: -0.1913% & -3.803%.
CC(C)COc1cncc(N2CCCN(CC(F)(F)F)CC2)n1 gave Mtb glucose medium: -8.704%; Mtb cholesterol medium: -19.09%.
Cc1nccn1-c1ccc(C(C)Nc2cnn(C)c(=O)c2Cl)cc1 (stereo not drawn) gave Mtb glucose medium: 2.995%; Mtb cholesterol medium: -12.92%.
COCC(c1ccccn1)N(C)C(=O)c1cc(-c2cccn2C)n[nH]1 (stereo not drawn) gave Mtb glucose medium: 10.47%; Mtb cholesterol medium: -31.1%.
CC(C)CC(=O)N1CCCC1c1nccnc1Nc1ncccn1 (stereo not drawn) gave Mtb glucose medium: -17.04%; Mtb cholesterol medium: -32.73%.
CC(C)CCN1C(=O)c2ccc(C(=O)NCCc3c[nH]cn3)cc2C1=O gave Mtb glucose medium: -6.835%; Mtb cholesterol medium: -22.76%.
[H][C@]12CCN[C@@]1([H])CN(C(=O)CC(F)(F)F)C2 gave Mtb glucose medium: 14.14%; Mtb cholesterol medium: 1.228%.
O=C(O)C(F)(F)F.[H][C@@]12OCCN(CC3CCOCC3)[C@@]1([H])CC[C@H]2OCC1CCOCC1 gave Mtb glucose medium: -3.502%; Mtb cholesterol medium: -23.67%.
CC(=O)NC1CCN(c2cnc(C3CCNCC3)cn2)CC1.Cl gave Mtb glucose medium: 19.43%; Mtb cholesterol medium: -2.346%.
O=C(NCC(Cc1cccc(F)c1)N1CCCC1=O)c1ccc(=O)[nH]n1 (stereo not drawn) gave Mtb glucose medium: -13.28%; Mtb cholesterol medium: -20.99%.
Cc1nc(CN2CCCC(NCc3cnc(C(C)(C)C)s3)C2)no1 (stereo not drawn) gave Mtb glucose medium: -49.92% & -2.387%; Mtb cholesterol medium: -13.45%.
CCS(=O)(=O)NCCNC(=O)N(Cc1ccc(C)o1)C(C)C gave Mtb glucose medium: -11.13%; Mtb cholesterol medium: -12.43%.
CC/C=C(/C)C(=O)N1CSCC1C(=O)NC1=NCCS1 (stereo not drawn) gave Mtb glucose medium: 13.73%; Mtb cholesterol medium: 18.98%.

Repeated from the top, 2 entries:

COc1ccccc1CC(=O)NC(C)c1nc2cccnc2n1C(C)C (stereo not drawn) gave Mtb glucose medium: -16.15%; Mtb cholesterol medium: 1.303%.
O=C(O)C(F)(F)F.O=C(O)C(F)(F)F.[H][C@@]12COC[C@@H](CC(=O)NCc3cccnc3)[C@]1([H])CN(C1CCC1)C2 gave Mtb glucose medium: 40.01%; Mtb cholesterol medium: 8.194%.